Ends that are not written are not given here.
Assay: Search of ligands against database of healthy tissues and tumor samples characterized by MHC proteomics
Design: species or system human
Details: for Benign Tissue: number of benign tissue samples in ligandome database presenting the ligand; for Tumors: number of tumor samples in ligandome database presenting the ligand

Row | Sequence | Benign Tissue | Tumors
1 | ALLSGVRQV [ALLSGVRQV] | 0 | 0
2 | FLDETLRSLA [FLDETLRSLA] | 0 | 3
3 | FLIENLLAA [FLIENLLAA] | 0 | 0
4 | IYPDITYSL [IYPDITYSL] | 0 | 0
5 | LLLPLLPPLSP [IGFBPL1-derived HLA-A*02:01 ligand, tumor antigen] | 0 | 2
6 | QYNPIRTTF [QYNPIRTTF] | 0 | 2
7 | SAAMVFSAL [ATP6V0C-derived HLA-C*03:03 ligand, tumor antigen] | 0 | 2
8 | SYQKVIELF [SYQKVIELF] | 7 | 2
9 | VLFENTDSVHL [VLFENTDSVHL] | 1 | 19
